The source of these data is patent publication CN111333732A.

By UniProt entry, the sequences of proteins in these tests, tags left out. Residues count along the entry.
UniProt Q02223, residues 1-54: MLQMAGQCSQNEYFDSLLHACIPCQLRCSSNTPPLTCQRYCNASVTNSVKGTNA
UniProt P26718, residues 78-216: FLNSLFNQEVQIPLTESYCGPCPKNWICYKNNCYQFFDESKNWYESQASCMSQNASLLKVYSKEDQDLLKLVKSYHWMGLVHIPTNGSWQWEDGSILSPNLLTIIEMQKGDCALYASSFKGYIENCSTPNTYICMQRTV

Results are given in words; binding and its absence hold for the method and conditions named. Some binding calls cover weakened binding; strength is not graded here. Where a sequence is shown, tags or fusion partners need not be part of it.

One experiment addresses BCMA蛋白 (coated in ELISA) (UniProt Q02223). In words: competitive ELISA on coated BCMA, competitor JZDE00. Background: ELISA stands for enzyme-linked immunosorbent assay.
The next experiment addresses NKG2D-Fc蛋白 (UniProt P26718). In words: SPR, simultaneous binding (Fig. 3E).

B1: 双特异性抗体2A9-MICA (anti-human BCMA scFv 2A9 fused to human MICA extracellular regions 1-3) (bispecific antibody)
chain: MAEVQLQQSGAELVKPGASVKLSCTASGFNIKDTYMHWVKQRPEQGLEWIGRIDPANGNTKYDPKFQGKATITADTSSNTAYLQLSSLTSEDTAVYYCARWVYWGQGTTLTVSTGGGGSDVVMTQSPSSMYASLGERVTITCKASQDINSYLSWFQQKPGKSPKTLIYRANRLVDGVPSRFSGSGSGQDYSLTISSLEYEDMGIYYCLQYDEFPYTFGGGTKLEIKRGSGGGGSEPHSLRYNLTVLSWDGSVQSGFLAEVHLDGQPFLRYDRQKCRAKPQGQWAEDVLGNKTWDRETRDLTGNGKDLRMTLAHIKDQKEGLHSLQEIRVCEIHEDNSTRSSQHFYYDGELFLSQNLETEEWTVPQSSRAQTLAMNVRNFLKEDAMKTKTHYHAMHADCLQELRRYLESGVVLRRTVPPMVNVTRSEASEGNITVTCRASSFYPRNIILTWRQDGVSLSHDTQQWGDVLPDGNGTYQTWVATRICRGEEQRFTCYMEHSGNHSTHPVPSGKVLVLQSHW
As to B1, the binding result with BCMA蛋白 (coated in ELISA) and with NKG2D-Fc蛋白 was “binds” in each case.
